Measurements from article PMC5976439.
These are yes or no findings as the source states them, for the method shown. In cells and extracts the contact can be indirect. Some entries that bind do so weakly or less than the wild type.

Sequences of proteins named here, by UniProt entry; tags and fusion partners are left off.
UniProt O60264: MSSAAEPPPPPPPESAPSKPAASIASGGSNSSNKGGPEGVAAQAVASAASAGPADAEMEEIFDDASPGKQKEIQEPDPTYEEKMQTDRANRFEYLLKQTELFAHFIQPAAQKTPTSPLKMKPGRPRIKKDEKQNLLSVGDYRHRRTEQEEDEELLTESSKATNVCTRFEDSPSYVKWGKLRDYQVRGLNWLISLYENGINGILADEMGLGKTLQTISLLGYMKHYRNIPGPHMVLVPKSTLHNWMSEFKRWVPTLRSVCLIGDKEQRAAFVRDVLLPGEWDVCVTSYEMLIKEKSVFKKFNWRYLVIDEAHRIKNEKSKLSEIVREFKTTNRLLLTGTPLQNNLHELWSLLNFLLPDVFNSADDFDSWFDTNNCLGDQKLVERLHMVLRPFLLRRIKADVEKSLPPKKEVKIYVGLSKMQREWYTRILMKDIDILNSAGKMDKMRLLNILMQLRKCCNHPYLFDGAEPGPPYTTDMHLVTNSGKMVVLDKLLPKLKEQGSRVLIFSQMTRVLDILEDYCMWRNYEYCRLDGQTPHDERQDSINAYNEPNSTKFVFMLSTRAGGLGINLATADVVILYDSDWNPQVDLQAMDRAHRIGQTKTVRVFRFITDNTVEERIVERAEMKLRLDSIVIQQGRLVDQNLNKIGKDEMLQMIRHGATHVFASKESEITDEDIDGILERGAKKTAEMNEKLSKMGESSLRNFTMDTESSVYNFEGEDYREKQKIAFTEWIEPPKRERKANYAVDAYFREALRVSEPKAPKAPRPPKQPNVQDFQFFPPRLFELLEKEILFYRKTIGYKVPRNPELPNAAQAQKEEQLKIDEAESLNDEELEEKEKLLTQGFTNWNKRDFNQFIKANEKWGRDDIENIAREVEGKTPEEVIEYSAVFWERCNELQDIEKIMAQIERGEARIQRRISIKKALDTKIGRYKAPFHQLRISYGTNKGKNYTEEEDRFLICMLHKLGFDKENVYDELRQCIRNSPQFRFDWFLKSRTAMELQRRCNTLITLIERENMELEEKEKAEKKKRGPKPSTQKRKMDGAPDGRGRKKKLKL
UniProt Q9NRL2: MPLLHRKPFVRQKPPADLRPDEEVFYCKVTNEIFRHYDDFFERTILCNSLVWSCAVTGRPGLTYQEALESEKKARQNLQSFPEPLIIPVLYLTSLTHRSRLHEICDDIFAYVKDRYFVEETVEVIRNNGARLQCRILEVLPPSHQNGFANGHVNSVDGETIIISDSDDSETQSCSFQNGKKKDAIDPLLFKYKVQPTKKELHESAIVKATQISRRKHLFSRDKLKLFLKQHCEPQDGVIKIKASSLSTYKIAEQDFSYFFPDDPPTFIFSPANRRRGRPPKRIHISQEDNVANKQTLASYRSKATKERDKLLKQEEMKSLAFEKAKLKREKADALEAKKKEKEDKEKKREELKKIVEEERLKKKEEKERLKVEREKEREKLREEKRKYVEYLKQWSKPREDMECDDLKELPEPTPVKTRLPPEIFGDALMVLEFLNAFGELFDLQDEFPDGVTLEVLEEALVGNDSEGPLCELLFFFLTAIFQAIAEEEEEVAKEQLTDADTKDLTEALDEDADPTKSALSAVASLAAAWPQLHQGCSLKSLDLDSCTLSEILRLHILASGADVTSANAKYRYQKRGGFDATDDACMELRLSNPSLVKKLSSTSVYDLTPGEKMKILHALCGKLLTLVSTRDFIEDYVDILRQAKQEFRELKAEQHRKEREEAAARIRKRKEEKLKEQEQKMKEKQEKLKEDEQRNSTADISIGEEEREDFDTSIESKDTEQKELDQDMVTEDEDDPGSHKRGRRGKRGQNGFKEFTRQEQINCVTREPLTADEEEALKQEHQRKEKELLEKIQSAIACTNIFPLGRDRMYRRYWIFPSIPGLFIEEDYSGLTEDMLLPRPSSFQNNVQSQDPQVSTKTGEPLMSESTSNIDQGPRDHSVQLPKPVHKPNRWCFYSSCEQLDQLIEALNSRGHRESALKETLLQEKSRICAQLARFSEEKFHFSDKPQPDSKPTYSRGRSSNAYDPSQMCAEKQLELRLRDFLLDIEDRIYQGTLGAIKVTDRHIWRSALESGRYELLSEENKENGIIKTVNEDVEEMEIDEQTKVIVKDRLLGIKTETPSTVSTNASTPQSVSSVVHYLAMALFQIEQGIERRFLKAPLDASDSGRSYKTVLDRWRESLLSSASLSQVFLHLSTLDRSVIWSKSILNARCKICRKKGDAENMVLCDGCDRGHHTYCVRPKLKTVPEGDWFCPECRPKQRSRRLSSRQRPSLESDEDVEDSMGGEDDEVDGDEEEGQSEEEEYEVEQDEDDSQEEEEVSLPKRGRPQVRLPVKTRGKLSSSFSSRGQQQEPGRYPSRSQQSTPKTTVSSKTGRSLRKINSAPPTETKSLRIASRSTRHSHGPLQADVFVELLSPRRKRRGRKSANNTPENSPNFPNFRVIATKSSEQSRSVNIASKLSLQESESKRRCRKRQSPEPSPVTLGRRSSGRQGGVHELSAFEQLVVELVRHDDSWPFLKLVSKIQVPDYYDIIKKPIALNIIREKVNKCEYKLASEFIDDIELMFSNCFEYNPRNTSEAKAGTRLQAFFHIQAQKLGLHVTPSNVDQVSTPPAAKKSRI

Biological target: SNF2h-FLAG (Sf9) (human) (UniProt O60264)
Assay: co-IP; FLAG immunoaffinity purification: Sf9 nuclear extracts mixed at a 10:1 Acf1:SNF2h-FLAG volume ratio, bound to FLAG M2-affinity resin, washed with increasing KCl, eluted with 100 mM KCl and 1 mg/mL FLAG peptide; SDS-PAGE

## Acf1 (accessory subunit of human ACF) (from UniProt Q9NRL2 1-1556)
  binding: binds
